Experimental data: publication PMC6336796
Results are given in words; binding and its absence hold for the method and conditions named. In cells and extracts the contact can be indirect. Some binding calls cover weakened binding; strength is not graded here.

By UniProt entry, the sequences of proteins in these tests, tags left out. Where a name states a change or a piece, a line headed by the entry shows the natural chain unless it says otherwise.
UniProt Q96EP0: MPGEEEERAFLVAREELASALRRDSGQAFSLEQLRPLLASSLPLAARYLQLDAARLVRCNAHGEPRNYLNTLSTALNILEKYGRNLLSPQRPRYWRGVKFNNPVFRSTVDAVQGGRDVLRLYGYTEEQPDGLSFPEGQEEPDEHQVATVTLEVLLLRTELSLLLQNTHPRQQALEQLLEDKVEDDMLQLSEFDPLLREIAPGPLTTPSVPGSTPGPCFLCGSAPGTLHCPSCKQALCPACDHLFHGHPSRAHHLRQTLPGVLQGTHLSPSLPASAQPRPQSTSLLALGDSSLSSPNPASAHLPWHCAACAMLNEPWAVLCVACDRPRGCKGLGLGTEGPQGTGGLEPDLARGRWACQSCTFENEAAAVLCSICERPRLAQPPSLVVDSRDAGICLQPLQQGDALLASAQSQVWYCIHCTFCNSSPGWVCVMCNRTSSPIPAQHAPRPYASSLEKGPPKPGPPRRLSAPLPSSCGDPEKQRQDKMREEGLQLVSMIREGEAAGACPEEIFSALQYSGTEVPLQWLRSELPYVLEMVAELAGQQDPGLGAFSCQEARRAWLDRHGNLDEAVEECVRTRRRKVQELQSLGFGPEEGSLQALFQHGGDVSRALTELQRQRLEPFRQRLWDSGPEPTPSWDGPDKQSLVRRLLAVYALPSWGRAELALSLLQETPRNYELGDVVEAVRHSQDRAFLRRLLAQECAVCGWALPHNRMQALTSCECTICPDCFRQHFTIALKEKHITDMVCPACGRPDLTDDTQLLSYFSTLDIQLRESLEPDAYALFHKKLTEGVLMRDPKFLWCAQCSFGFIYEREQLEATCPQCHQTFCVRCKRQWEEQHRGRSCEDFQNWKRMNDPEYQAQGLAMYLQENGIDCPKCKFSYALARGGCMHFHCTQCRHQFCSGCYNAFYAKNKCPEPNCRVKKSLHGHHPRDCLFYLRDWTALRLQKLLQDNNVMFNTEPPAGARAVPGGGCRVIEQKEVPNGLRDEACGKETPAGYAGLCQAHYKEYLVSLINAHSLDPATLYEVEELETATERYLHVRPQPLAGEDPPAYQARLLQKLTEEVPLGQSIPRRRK
UniProt Q8IX90: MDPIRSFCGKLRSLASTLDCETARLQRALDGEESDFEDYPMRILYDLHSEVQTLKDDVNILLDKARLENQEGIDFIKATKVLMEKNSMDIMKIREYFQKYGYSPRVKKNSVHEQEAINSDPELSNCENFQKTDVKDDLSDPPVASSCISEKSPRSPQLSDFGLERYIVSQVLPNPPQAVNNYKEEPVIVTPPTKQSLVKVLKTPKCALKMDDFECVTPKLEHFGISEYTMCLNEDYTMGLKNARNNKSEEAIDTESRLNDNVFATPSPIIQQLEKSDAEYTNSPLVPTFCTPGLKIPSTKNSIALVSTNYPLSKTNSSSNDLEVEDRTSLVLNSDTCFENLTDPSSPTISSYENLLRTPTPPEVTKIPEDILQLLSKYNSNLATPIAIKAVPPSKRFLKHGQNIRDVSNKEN
UniProt Q02224: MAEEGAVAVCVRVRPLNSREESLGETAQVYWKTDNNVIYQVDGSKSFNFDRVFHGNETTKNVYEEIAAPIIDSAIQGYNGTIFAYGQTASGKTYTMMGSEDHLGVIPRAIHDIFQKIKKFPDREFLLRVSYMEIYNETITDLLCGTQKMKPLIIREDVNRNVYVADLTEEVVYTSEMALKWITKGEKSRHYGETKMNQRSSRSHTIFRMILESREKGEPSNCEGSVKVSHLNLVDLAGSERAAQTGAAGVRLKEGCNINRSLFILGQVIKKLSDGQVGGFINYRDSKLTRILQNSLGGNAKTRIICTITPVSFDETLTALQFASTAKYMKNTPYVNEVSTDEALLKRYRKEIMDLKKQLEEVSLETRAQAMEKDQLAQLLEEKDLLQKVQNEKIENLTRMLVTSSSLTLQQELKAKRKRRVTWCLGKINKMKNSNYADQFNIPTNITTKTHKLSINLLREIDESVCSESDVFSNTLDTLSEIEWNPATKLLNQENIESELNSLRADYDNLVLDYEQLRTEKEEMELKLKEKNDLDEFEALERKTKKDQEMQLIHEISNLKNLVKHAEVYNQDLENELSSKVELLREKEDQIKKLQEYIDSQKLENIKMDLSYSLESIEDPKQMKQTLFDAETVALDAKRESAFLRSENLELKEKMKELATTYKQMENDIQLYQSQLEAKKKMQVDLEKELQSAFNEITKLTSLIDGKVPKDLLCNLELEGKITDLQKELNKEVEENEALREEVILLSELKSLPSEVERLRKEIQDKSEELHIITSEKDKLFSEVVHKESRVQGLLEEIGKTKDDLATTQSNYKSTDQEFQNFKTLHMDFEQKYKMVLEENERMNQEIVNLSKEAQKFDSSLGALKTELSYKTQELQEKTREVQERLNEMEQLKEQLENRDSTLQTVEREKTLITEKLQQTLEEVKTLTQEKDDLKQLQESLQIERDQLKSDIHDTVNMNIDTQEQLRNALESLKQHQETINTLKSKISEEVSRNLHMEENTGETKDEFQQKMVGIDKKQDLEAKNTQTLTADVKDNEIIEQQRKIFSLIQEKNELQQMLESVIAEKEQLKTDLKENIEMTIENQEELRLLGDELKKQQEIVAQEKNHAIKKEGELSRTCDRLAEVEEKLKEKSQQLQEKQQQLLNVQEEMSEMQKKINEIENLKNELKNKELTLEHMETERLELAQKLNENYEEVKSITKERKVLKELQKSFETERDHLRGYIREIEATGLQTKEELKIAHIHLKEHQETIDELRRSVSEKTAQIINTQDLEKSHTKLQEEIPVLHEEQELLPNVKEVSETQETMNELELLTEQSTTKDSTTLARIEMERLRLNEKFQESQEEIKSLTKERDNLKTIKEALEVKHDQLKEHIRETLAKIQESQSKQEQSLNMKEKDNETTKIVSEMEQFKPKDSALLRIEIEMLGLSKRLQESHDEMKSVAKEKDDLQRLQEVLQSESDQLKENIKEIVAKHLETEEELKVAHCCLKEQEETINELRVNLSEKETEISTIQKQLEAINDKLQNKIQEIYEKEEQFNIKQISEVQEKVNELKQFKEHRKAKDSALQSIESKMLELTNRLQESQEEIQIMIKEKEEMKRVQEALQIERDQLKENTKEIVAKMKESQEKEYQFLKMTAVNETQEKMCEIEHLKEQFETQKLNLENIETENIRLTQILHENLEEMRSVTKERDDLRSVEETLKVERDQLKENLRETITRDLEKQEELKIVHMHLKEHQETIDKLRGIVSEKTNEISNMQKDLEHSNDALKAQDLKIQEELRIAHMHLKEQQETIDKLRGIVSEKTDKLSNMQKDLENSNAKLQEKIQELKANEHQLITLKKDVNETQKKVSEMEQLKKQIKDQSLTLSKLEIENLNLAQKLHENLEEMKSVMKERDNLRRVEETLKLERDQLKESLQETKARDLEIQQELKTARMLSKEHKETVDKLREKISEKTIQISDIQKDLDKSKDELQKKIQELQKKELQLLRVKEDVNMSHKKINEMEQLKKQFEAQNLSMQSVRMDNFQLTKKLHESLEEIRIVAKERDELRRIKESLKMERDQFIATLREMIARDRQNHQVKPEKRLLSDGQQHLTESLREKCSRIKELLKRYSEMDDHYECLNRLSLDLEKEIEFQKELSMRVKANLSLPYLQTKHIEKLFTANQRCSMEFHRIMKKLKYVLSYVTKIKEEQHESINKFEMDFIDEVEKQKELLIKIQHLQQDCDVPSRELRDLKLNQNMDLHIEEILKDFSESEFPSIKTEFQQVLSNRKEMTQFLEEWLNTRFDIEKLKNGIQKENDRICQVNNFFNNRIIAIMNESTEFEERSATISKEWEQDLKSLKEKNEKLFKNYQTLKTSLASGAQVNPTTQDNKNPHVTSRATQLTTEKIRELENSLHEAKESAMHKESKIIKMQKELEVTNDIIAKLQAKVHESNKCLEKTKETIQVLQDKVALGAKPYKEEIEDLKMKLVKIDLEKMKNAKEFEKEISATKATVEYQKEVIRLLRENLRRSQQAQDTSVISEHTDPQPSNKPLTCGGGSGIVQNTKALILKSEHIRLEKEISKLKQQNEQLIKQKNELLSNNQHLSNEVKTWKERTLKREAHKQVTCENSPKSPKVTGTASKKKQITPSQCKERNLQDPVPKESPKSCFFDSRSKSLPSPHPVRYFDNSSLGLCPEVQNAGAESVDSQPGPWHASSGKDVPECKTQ

Target: linear ubiquitin chain assembly complex (LUBAC), ectopic (UniProt Q96EP0)
Assay: co-IP; mitotic HeLa cells transfected with LUBAC components; endogenous proteins detected by blot; which protein was precipitated is not told

Row | Substance | binding
1 | kinetochore protein Ska3 (from UniProt Q8IX90 1-412) | no binding
2 | endogenous CENP-E (from UniProt Q02224 1-2701) | binds
